According to PubChem BioAssay AID2417 (National Center for Advancing Translational Sciences (NCATS), 2010):
The campaign covered roughly 140,000 compounds. About 4,300 (3.1%) were called active. Inconclusive means that the source gave no clear call. Such entries were picked first, then a sample of the others.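 How the source made its calls: active means readout at or below -70, meaning at least 70% loss of cells showing the perinucleolar compartment, a nuclear body marking cancer cells; inconclusive means readout between -30 and a set limit; inactive means the rest.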

Assay: High Content Assay for Compounds that inhibit the Assembly of the Perinucleolar Compartment;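 further: plate controls were DMSO wells for no effect and camptothecin positive control wells for full effect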
Details: PC3M PTB-GFP, PNC prevalence imaging, 16 h; at 10 µM; active compounds read low
How it was run: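 Read-out is percentage of cells bearing a perinucleolar compartment, from automated 20x imaging of fixed, Hoechst-stained PC3M PTB-GFP cells. Cells were seeded 4 h, then exposed 16 h to compound (23 nl of library stock) in duplicate plates.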

| Structure (SMILES) | activity change (PNC), negative = inhibition |
| --- | --- |
| C=CCSc1nc2ccccc2n1C(=O)/C=C/c1cc(OC)c(OC)c(OC)c1 | inactive: 20.1% |
| Cc1ccc(NC2=NCC(=O)N2Cc2ccc3c(c2)OCO3)c(C)c1 | active: -99.6% |
| COc1cccc(CNC(=O)C2CCN(S(=O)(=O)N3CC(C)CC(C)C3)CC2)c1 (stereo unspecified) | inconclusive: -43.8% |
| CCc1cc2c(=O)c(-c3nc4ccccc4n3C)coc2c(CN2CCN(C)CC2)c1O | inconclusive: -63.1% |
| COc1ccc(NC(=O)/C(=C/c2ccc(OC(C)=O)c(OC)c2)NC(C)=O)cc1 | inactive: 49.9% |
| CC(/C(O)=C(\C#N)c1nc2ccccc2n1C)N1C(=O)c2ccccc2C1=O (stereo unspecified) | inconclusive: -75.3% |
| Cc1nc2ccccc2c(=O)n1/N=C/c1cn(-c2ccccc2)nc1-c1cccs1 | inconclusive: -35% |
| O=C(/C=C/c1ccc(Cl)cc1)N1CCN(c2ccc(Cl)cc2[N+](=O)[O-])CC1 | inactive: 16.4% |
| COc1ccc(CNC(=O)CSc2nc3ccc(N)cc3s2)cc1 | inactive: -25.3% |
| Clc1cc(Br)ccc1OCCOCCOc1cccc2cccnc12 | inconclusive: -50.3% |
| O=c1[nH]c2ccc(S(=O)(=O)N3CCCCC3)cc2o1 | inactive: -28.8% |
| O=C(NCC1CCCO1)c1ccc2c(=O)n(CC3CCCO3)c(=S)[nH]c2c1 (stereo unspecified) | inconclusive: -30.7% |
| O=C(CSc1ncn[nH]1)Nc1ccc(Cl)c(Cl)c1 | inconclusive: -40.6% |
| Cc1ccc(C(=O)/C=C/c2ccccc2)o1 | inactive: 0.486% |
| CCOC(=O)CCSCC(=O)Nc1cc(C)on1 | inconclusive: -50.4% |
| Cn1c(C(O)c2ccccc2F)nc(Cl)c1Cl (stereo unspecified) | inconclusive: -38.4% |
| CS(=O)(=O)N1CCN(c2nc(-c3ccccc3)cs2)CC1 | inconclusive: -45.9% |
| CC(C)c1c(C#N)c(N)nc(SCC(=O)c2cc3ccccc3oc2=O)c1C#N | inconclusive: -42.3% |
| CCCCCCCC(=O)NNC(=O)CC(=O)Nc1ccccc1C(=O)O | inconclusive: -38.3% |
| COc1cc(NC(=O)CN2C(=O)NC(c3ccccc3)(c3ccccc3)C2=O)c(C)cc1[N+](=O)[O-] | inconclusive: -39.6% |
| COCCn1c(SCc2nc3ccccc3c(=O)[nH]2)nnc1-c1ccncc1 | inconclusive: -59% |
| Cc1nc(Nc2c(Cl)cccc2Cl)sc1C(=O)Nc1ccccc1 | inactive: 34.2% |
| O=S(=O)(c1ccc(F)cc1)n1ccc2cccnc21 | active: -100% |

| Structure (SMILES) | activity change (PNC), negative = inhibition |
| --- | --- |
| CCCCNC(=O)c1onc(CSc2ccc(Cl)cc2)c1C(=O)O | inactive: 6.14% |
| CCc1ccccc1NC(=O)CN(C)C(=O)Cn1ncc(Cl)c(Cl)c1=O | inactive: -27.9% |
| COc1ccc2c3c(c(=O)oc2c1OCC(N)=O)CCCC3 | inconclusive: -62.3% |
| O=C(Cn1c(SCc2ccccc2)nc2ccccc21)N1CCOCC1 | inconclusive: -52.9% |
| CC(C)(C)NC(=O)COC(=O)c1snc(C(=O)NC2CCCCC2)c1N | inconclusive: -77.4% |
| COCCNC(=O)C(c1ccc(O)cc1)N(Cc1ccco1)C(=O)CCC(=O)Nc1nccs1 (stereo unspecified) | inconclusive: -43.9% |
| O=C(c1cnc2n(c1=O)CCS2)N(C1CCCCC1)C1CCCCC1 | inconclusive: -37.1% |
| COc1cccc(C(=O)N2CCN(CCCc3ccccc3)CC2)c1OC | inconclusive: -40.4% |
| Cn1c(=O)c2cc(NCc3ccccc3)nnc2n(C)c1=O | inconclusive: -49.3% |
| CCc1cc2cc3c(cc2nc1SCC(=O)Nc1nnc(C)s1)OCCO3 | inconclusive: -49.8% |
| COc1ccccc1Nc1nc(-c2c(C)[nH]c3ccccc23)cs1 | inconclusive: -33.7% |
| Cc1cccc(NC(=O)CN2C(=O)N/C(=C/c3cc(C)n(C(C)C)c3C)C2=O)c1 | inactive: 30.9% |
| COc1ccc(N2C(=O)CC(SCCc3nc4ccccc4[nH]3)C2=O)cc1 (stereo unspecified) | inactive: -7.32% |
| COc1cccc(Nc2nc(=O)[nH]nc2C)c1 | inconclusive: -47.4% |
| CCC(C)(C(=O)NC1CCCC1)N(C(=O)CNC(C)=O)c1ccccc1 (stereo unspecified) | inconclusive: -36.4% |
| Cc1ccc(CNC(=O)c2ccc([N+](=O)[O-])o2)cc1 | inconclusive: -61.5% |
| CCOn1c(=O)c(-c2cccs2)[n+]([O-])c2ccccc21 | inconclusive: -31.2% |
| O=C1NC2=C(C(=O)CCC2)C(c2ccc3ncccc3c2)N1 (stereo unspecified) | inactive: -23.4% |
| O=C(Nc1nncs1)Oc1ccccc1 | inconclusive: -49.6% |
| C/C(CC(=O)Nc1cc(C)ccn1)=N\NC(=O)C(=O)Nc1cccc(C)c1 | inconclusive: -33.4% |
| CCOC(=O)N1CCN(C(=O)C2c3cc(OC)c(OC)cc3C(=O)N3CCc4ccccc4C23)CC1 (stereo unspecified) | inconclusive: -66.8% |
| Cc1nn2c(N)c(C#N)cnc2c1-c1ccccc1 | active: -81.8% |
| O=C(CSc1nc(-c2ccccc2)c(-c2ccccc2)[nH]1)NCCN1C(=O)CSC1=O | inactive: 2.18% |

| Structure (SMILES) | activity change (PNC), negative = inhibition |
| --- | --- |
| Cc1ccc(C(=O)Nc2cc(Cl)ccc2N2CCCCC2)s1 | inconclusive: -56% |
| CCOc1ccccc1C(=O)N1CCN(C(c2ccccc2)c2ccccc2)CC1 | inconclusive: -43.7% |
| O=C1CCCN1c1ccc(S(=O)(=O)N2CCC(c3ccccc3)CC2)cc1 | inconclusive: -60.6% |
| C=CCc1cccc(/C=N/NC(=O)CNc2cccc3ccccc23)c1O | active: -84.1% |
| Cc1cc(C2N=C(N)Nc3nc4ccccc4n32)c(C)n1-c1ccccc1Cl (stereo unspecified) | active: -99.1% |
| Cc1ccc(NC(=O)C2C(C(=O)O)C3C=CC2C32CC2)cc1 (stereo unspecified) | inconclusive: -69.9% |
| CCOC(=O)c1sc(NC(=O)c2cc(-c3ccccc3C)nc3ccccc23)c(C#N)c1C | inconclusive: -51.2% |
| O=C(Cc1ccc(-n2cccc2)cc1)N1CCc2ccccc21 | inconclusive: -34.2% |
| CCCOc1cccc(C(=O)Nc2cc(NC(=O)c3ccco3)ccc2OC)c1 | inconclusive: -41.2% |
| O=c1[nH]c2ccccc2n1CCC1CCCCC1 | inconclusive: -42% |
| O=C(Oc1ccc(/C=N/NC(=O)c2ccccc2O)cc1)c1ccccc1 | inconclusive: -44% |
| Cc1cc(C)nc(N/N=C/c2ccco2)n1 | active: -110% |
| Cc1cnc(NC(=O)CSc2nnc(-c3ccc(Cl)cc3Cl)n2N)s1 | active: -100% |
| Cc1sc(NC(=O)c2cc(-c3ccc(Cl)cc3)nc3ccccc23)c(C(N)=O)c1C | inactive: 24.7% |
| COc1ccc(C(=O)c2sc3nc(-c4ccc(OC)cc4)ccc3c2N)cc1 | inconclusive: -44% |
| NS(=O)(=O)c1ccc(NC(=O)c2ccccc2C(=O)N2CCCCC2)cc1 | inactive: -0.698% |
| O=C(Nc1ccc([N+](=O)[O-])cc1)Nc1ccc(OC(F)F)c(Cl)c1 | active: -113% |
| CCN(CC)S(=O)(=O)c1ccc(Cl)c(C(=O)NC)c1 | inactive: 3.66% |
| COc1ccc(CNC(=O)NCc2ccc(OC)c(OC)c2)cc1OC | inconclusive: -31.1% |
| Cc1sc(-n2c(C)ccc2C)c(C#N)c1C | inactive: 16.8% |
| CCOc1ccc(C(=O)NC(Cc2ccccc2)C(=O)OC)cc1 (stereo unspecified) | inactive: -5.33% |
| CC(=O)c1ccc(N2C(=O)C3C(C2=O)C(C(=O)c2ccc(Cl)cc2)N2CCCC32)cc1 (stereo unspecified) | inconclusive: -66.9% |
| CCOC(=O)c1cnc(-n2nc(C)cc2C)nc1NC1CCCCC1 | inconclusive: -35% |

| Structure (SMILES) | activity change (PNC), negative = inhibition |
| --- | --- |
| C/C(CC(=O)N1CCN(C=O)CC1)=N\NC(=O)c1cc2ccccc2cc1O | inconclusive: -39.5% |
| COC(=O)c1nn(-c2ccccc2)c(Sc2ccc(OC)cc2)c1/C=N/O | inconclusive: -31.7% |
| O=C(CSc1n[nH]c(-c2ccccc2)n1)Nc1ccc(Br)cn1 | inactive: 33.1% |
| CCn1cc(C(=O)Nc2cccc(NC(C)=O)c2)c2cc(OC)c(OC)cc2c1=O | inconclusive: -56.1% |
| O=C(CCCCCn1c(=O)[nH]c2ccccc2c1=O)N1CCN(Cc2ccc3c(c2)OCO3)CC1 | inactive: 28.1% |
| Fc1cc(F)c2nc(N3CCCCC3)sc2c1 | inactive: 28.8% |
| Cc1cccc(C)c1NC1=NC2(CCCCC2)N=C(N)N1 | inactive: 8.66% |
| CC1(C)Cc2c(c(N3CCOCC3)nc3sc4c(NCc5ccco5)nnnc4c23)CS1 | active: -80.8% |
| CCOC(=O)c1ccc(Oc2cc(C)nc(SC)n2)cc1 | active: -99.8% |
| CC(=O)C1C(c2ccc(Br)cc2)C2C(C)=NN=C2CC1(C)O (stereo unspecified) | inconclusive: -39.4% |
| O=S(=O)(c1cccs1)N1CCN(Cc2nc3ccccc3s2)CC1 | inconclusive: -37.2% |
| COc1ccc(Nc2sc(C(=O)c3ccc(Cl)cc3)c(N)c2C(=O)Nc2ccccc2OC)cc1 | inconclusive: -75.5% |
| COc1ccc(CCNC(=O)NC(C(F)(F)F)C(F)(F)F)cc1OC | inconclusive: -64.2% |
| C=CCn1c(CC#N)nnc1N1CCOCC1 | active: -103% |
| CCn1nnnc1SCC(=O)c1ccc(C)cc1 | inconclusive: -36.5% |
| Cc1cc(Oc2ccc(=O)n(C)n2)nc(Oc2ccc(=O)[nH]n2)n1 | inconclusive: -35% |
| CCN1CCn2c1nc(N1CCOCC1)nc2=O | inconclusive: -58.6% |
| COCCCN(C(=S)Nc1cc(Cl)cc(Cl)c1)C(C)c1ccncc1 (stereo unspecified) | inconclusive: -47.7% |
| COC(=O)C(C)Sc1nc2c(c(=O)n1-c1ccccc1)SCC2 (stereo unspecified) | inconclusive: -31.5% |
| Cn1cc(S(=O)(=O)N2CCN(c3ccccc3F)CC2)c(=O)n(C)c1=O | inconclusive: -41.5% |
| Cc1nnc(SCC(=O)NCc2ccc3c(c2)OCO3)s1 | inconclusive: -54.5% |
| CCOCCCNC(=S)Nc1cc(C)cc(C)c1 | inactive: -11.7% |

Reformatted with bars between the fields: part of the list above
Structure (SMILES) | activity change (PNC), negative = inhibition
O=C(CCCCCn1c(=O)[nH]c2ccccc2c1=O)N1CCN(Cc2ccc3c(c2)OCO3)CC1 | inactive: 28.1%
COc1ccc(Nc2sc(C(=O)c3ccc(Cl)cc3)c(N)c2C(=O)Nc2ccccc2OC)cc1 | inconclusive: -75.5%
COCCCN(C(=S)Nc1cc(Cl)cc(Cl)c1)C(C)c1ccncc1 (stereo unspecified) | inconclusive: -47.7%
Cn1cc(S(=O)(=O)N2CCN(c3ccccc3F)CC2)c(=O)n(C)c1=O | inconclusive: -41.5%
